Reference: patent US9247740B2, “Isoxazoline derivatives as insecticidal compounds” (Syngenta Participations AG, priority 2011, dated 2016)
Some results were stated once for a whole list of compounds, not compound by compound. At least one compound was matched to its structure with a doubt left.

Assays:
Assay type in all cases: in vivo
[1] = system: Spodoptera littoralis (Egyptian Cotton Leafworm); test: Spodoptera littoralis leaf disc spray test; details: 200 ppm spray on cotton leaf discs; mortality, feeding behavior, growth regulation 3 days after treatment
Description: This Example illustrates the insecticidal and acaricidal properties of compounds of formula (I). Tests were performed as follows:

[2] = system: Heliothis virescens (Tobacco Budworm); test: Heliothis virescens egg test on artificial diet; details: 200 ppm (concentration in well 18 ppm), eggs 0-24 h old on artificial diet; egg mortality, larval mortality, growth regulation after 4 days
Source text: (§1) This Example illustrates the insecticidal and acaricidal properties of compounds of formula (I).

[3] = system: Plutella xylostella (Diamond Back Moth); test: Plutella xylostella larval test on artificial diet; details: 200 ppm (concentration in well 18 ppm), L2 larvae, larval mortality and growth regulation after 6 days
Source text: as §1

[4] = system: Diabrotica balteata (Corn Root Worm); test: Diabrotica balteata larval test on artificial diet; details: 200 ppm (concentration in well 18 ppm), L2 larvae, larval mortality and growth regulation after 5 days
Source text: as §1

[5] = system: Thrips tabaci (Onion Thrips); test: Thrips tabaci leaf disc spray test; details: 200 ppm spray on sunflower leaf discs, mixed ages; mortality after 7 days
Source text: as §1

[6] = system: Tetranychus urticae (Two-Spotted Spider Mite); test: Tetranychus urticae leaf disc spray test; details: 200 ppm spray on bean leaf discs, mixed ages; egg, larval and adult mortality 8 days later
Source text: as §1

COC1(CCNC(=O)c2ccc(C3=NOC(c4cc(Cl)cc(Cl)c4)(C(F)(F)F)C3)cc2C)CSC1 (stereo not drawn) [Compound A184]
at least 80%: control of Spodoptera littoralis [1] | control of Heliothis virescens [2] | control of Plutella xylostella [3] | control of Diabrotica balteata [4] | control of Thrips tabaci [5] | control of Tetranychus urticae [6]

Cc1cc(C2=NOC(c3cc(Cl)c(-c4ccc(Cl)cc4)c(Cl)c3)(C(F)(F)F)C2)ccc1C(=O)NC1C[S+]([O-])C1 (stereo not drawn) [Compound A186]
at least 80%: control of Spodoptera littoralis [1] | control of Heliothis virescens [2] | control of Plutella xylostella [3] | control of Diabrotica balteata [4] | control of Thrips tabaci [5] | control of Tetranychus urticae [6]

Cc1cc(C2=NOC(c3cc(Cl)cc(Cl)c3)(C(F)(F)F)C2)ccc1C(=O)NCC1C[S+]([O-])C1 (stereo not drawn) [Compound A192]
at least 80%: control of Spodoptera littoralis [1] | control of Heliothis virescens [2] | control of Plutella xylostella [3] | control of Diabrotica balteata [4] | control of Thrips tabaci [5] | control of Tetranychus urticae [6]

Cc1cc(C2=NOC(c3cc(Cl)cc(Cl)c3)(C(F)(F)F)C2)ccc1C(=O)NC1C[N+](C)([O-])C1 (stereo not drawn) [Compound A198]
at least 80%: control of Spodoptera littoralis [1] | control of Heliothis virescens [2] | control of Plutella xylostella [3] | control of Diabrotica balteata [4] | control of Thrips tabaci [5] | control of Tetranychus urticae [6]

Cc1cc(C2=NOC(c3cc(Cl)cc(Cl)c3)(C(F)(F)F)C2)ccc1C(=O)NCC(=O)NC1CS(=O)(=O)C1 (stereo not drawn) [Compound A200]
at least 80%: control of Spodoptera littoralis [1] | control of Heliothis virescens [2] | control of Plutella xylostella [3] | control of Diabrotica balteata [4] | control of Thrips tabaci [5] | control of Tetranychus urticae [6]

Cc1cc(C2=NOC(c3cc(Cl)cc(Cl)c3)(C(F)(F)F)C2)ccc1C(=O)NCC(=O)NC1(C)CSC1 (stereo not drawn) [Compound A201]
at least 80%: control of Spodoptera littoralis [1] | control of Heliothis virescens [2] | control of Plutella xylostella [3] | control of Diabrotica balteata [4] | control of Thrips tabaci [5] | control of Tetranychus urticae [6]

Cc1cc(C2=NOC(c3cc(Cl)cc(Cl)c3)(C(F)(F)F)C2)ccc1C(=O)NCC(=O)NC1C[S+]([O-])C1 (stereo not drawn) [Compound A202]
at least 80%: control of Spodoptera littoralis [1] | control of Heliothis virescens [2] | control of Plutella xylostella [3] | control of Diabrotica balteata [4] | control of Thrips tabaci [5] | control of Tetranychus urticae [6]

Cc1cc(C2=NOC(c3cc(Cl)cc(Cl)c3)(C(F)(F)F)C2)ccc1C(=O)NCC(=O)NC1CSC1 (stereo not drawn) [Compound A203]
at least 80%: control of Spodoptera littoralis [1] | control of Heliothis virescens [2] | control of Plutella xylostella [3] | control of Diabrotica balteata [4] | control of Thrips tabaci [5] | control of Tetranychus urticae [6]

COC(=O)N1CC(NC(=O)c2ccc(C3=NOC(c4cc(Cl)cc(Cl)c4)(C(F)(F)F)C3)cc2C)C1 (stereo not drawn) [Compound A206]
at least 80%: control of Spodoptera littoralis [1] | control of Heliothis virescens [2] | control of Plutella xylostella [3] | control of Diabrotica balteata [4] | control of Thrips tabaci [5] | control of Tetranychus urticae [6]

Cc1cc(C2=NOC(c3cc(Cl)cc(Cl)c3)(C(F)(F)F)C2)ccc1C(=O)NC1CC(=NO)C1 (stereo not drawn) [Compound A207]
at least 80%: control of Spodoptera littoralis [1] | control of Heliothis virescens [2] | control of Plutella xylostella [3] | control of Diabrotica balteata [4] | control of Thrips tabaci [5] | control of Tetranychus urticae [6]

Cc1cc(C2=NOC(c3cc(Cl)cc(Cl)c3)(C(F)(F)F)C2)ccc1C(=O)NC1CC(=O)C1 (stereo not drawn) [Compound A208]
at least 80%: control of Spodoptera littoralis [1] | control of Heliothis virescens [2] | control of Plutella xylostella [3] | control of Diabrotica balteata [4] | control of Thrips tabaci [5] | control of Tetranychus urticae [6]

Cc1cc(C2=NOC(c3cc(Cl)cc(Cl)c3)(C(F)(F)F)C2)ccc1C(=O)NC(C)C(=O)NC1CS(=O)(=O)C1 (stereo not drawn) [Compound A209]
at least 80%: control of Spodoptera littoralis [1] | control of Heliothis virescens [2] | control of Plutella xylostella [3] | control of Diabrotica balteata [4] | control of Thrips tabaci [5] | control of Tetranychus urticae [6]

Cc1cc(C2=NOC(c3cc(Cl)cc(Cl)c3)(C(F)(F)F)C2)ccc1C(=O)NC(C)C(=O)NC1C[S+]([O-])C1 (stereo not drawn) [Compound A210]
at least 80%: control of Spodoptera littoralis [1] | control of Heliothis virescens [2] | control of Plutella xylostella [3] | control of Diabrotica balteata [4] | control of Thrips tabaci [5] | control of Tetranychus urticae [6]

Cc1cc(C2=NOC(c3cc(Cl)cc(Cl)c3)(C(F)(F)F)C2)ccc1C(=O)NC(C)C(=O)NC1CSC1 (stereo not drawn) [Compound A211]
at least 80%: control of Spodoptera littoralis [1] | control of Heliothis virescens [2] | control of Plutella xylostella [3] | control of Diabrotica balteata [4] | control of Thrips tabaci [5] | control of Tetranychus urticae [6]

Cc1cc(C2=NOC(c3cc(Cl)cc(Cl)c3)(C(F)(F)F)C2)ccc1C(=O)NC(Cc1ccccc1)C(=O)NC1(C)CSC1 (stereo not drawn) [Compound A213]
at least 80%: control of Spodoptera littoralis [1] | control of Heliothis virescens [2] | control of Plutella xylostella [3] | control of Diabrotica balteata [4] | control of Thrips tabaci [5] | control of Tetranychus urticae [6]

Cc1cc(C2=NOC(c3cc(Cl)cc(Cl)c3)(C(F)(F)F)C2)ccc1C(=O)NC(Cc1ccccc1)C(=O)NC1CSC1 (stereo not drawn) [Compound A215]
at least 80%: control of Spodoptera littoralis [1] | control of Heliothis virescens [2] | control of Plutella xylostella [3] | control of Diabrotica balteata [4] | control of Thrips tabaci [5] | control of Tetranychus urticae [6]

CON=C1CC(NC(=O)c2ccc(C3=NOC(c4cc(Cl)cc(Cl)c4)(C(F)(F)F)C3)cc2C)C1 (stereo not drawn) [Compound A216]
at least 80%: control of Spodoptera littoralis [1] | control of Heliothis virescens [2] | control of Plutella xylostella [3] | control of Diabrotica balteata [4] | control of Thrips tabaci [5] | control of Tetranychus urticae [6]

Cc1cc(C2=NOC(c3cc(Cl)cc(Cl)c3)(C(F)(F)F)C2)ccc1C(=O)NC1CC(=NOCc2ccccc2)C1 (stereo not drawn) [Compound A217]
at least 80%: control of Spodoptera littoralis [1] | control of Heliothis virescens [2] | control of Plutella xylostella [3] | control of Diabrotica balteata [4] | control of Thrips tabaci [5] | control of Tetranychus urticae [6]

Cc1cc(C2=NOC(c3cc(Cl)cc(Cl)c3)(C(F)(F)F)C2)ccc1C(=O)NC1CN(OCc2ccccc2)C1=O (stereo not drawn) [Compound A219]
at least 80%: control of Spodoptera littoralis [1] | control of Heliothis virescens [2] | control of Plutella xylostella [3] | control of Diabrotica balteata [4] | control of Thrips tabaci [5] | control of Tetranychus urticae [6]

CCON=C1CC(NC(=O)c2ccc(C3=NOC(c4cc(Cl)cc(Cl)c4)(C(F)(F)F)C3)cc2C)C1 (stereo not drawn) [Compound A220]
at least 80%: control of Spodoptera littoralis [1] | control of Heliothis virescens [2] | control of Plutella xylostella [3] | control of Diabrotica balteata [4] | control of Thrips tabaci [5] | control of Tetranychus urticae [6]

CC1(NC(=O)c2ccc(C3=NOC(c4cc(Cl)cc(Cl)c4)(C(F)(F)F)C3)cc2C(F)(F)F)CSC1 (stereo not drawn) [Compound B03]
at least 80%: control of Spodoptera littoralis [1] | control of Heliothis virescens [2] | control of Plutella xylostella [3] | control of Diabrotica balteata [4] | control of Thrips tabaci [5] | control of Tetranychus urticae [6]

CC1(NC(=O)c2ccc(C3=NOC(c4cc(Cl)cc(Cl)c4)(C(F)(F)F)C3)cc2Br)CSC1 (stereo not drawn) [Compound B05]
at least 80%: control of Spodoptera littoralis [1] | control of Heliothis virescens [2] | control of Plutella xylostella [3] | control of Diabrotica balteata [4] | control of Thrips tabaci [5] | control of Tetranychus urticae [6]

Cc1cc(C2=NOC(c3cc(Cl)cc(Cl)c3)(C(F)(F)F)C2)cc(Br)c1C(=O)NC1CSC1 (stereo not drawn) [Compound B09]
at least 80%: control of Spodoptera littoralis [1] | control of Heliothis virescens [2] | control of Plutella xylostella [3] | control of Diabrotica balteata [4] | control of Thrips tabaci [5] | control of Tetranychus urticae [6]
